Laboratory results published in article PMC9924195.
Results are given in words; binding and its absence hold for the method and conditions named. In cells and extracts the contact can be indirect. Some results given as binding are weak or reduced against the parent protein; the word gives no strength.

Chains of the proteins cited; added tags and fusions are not shown.
UniProt Q9Y6K9: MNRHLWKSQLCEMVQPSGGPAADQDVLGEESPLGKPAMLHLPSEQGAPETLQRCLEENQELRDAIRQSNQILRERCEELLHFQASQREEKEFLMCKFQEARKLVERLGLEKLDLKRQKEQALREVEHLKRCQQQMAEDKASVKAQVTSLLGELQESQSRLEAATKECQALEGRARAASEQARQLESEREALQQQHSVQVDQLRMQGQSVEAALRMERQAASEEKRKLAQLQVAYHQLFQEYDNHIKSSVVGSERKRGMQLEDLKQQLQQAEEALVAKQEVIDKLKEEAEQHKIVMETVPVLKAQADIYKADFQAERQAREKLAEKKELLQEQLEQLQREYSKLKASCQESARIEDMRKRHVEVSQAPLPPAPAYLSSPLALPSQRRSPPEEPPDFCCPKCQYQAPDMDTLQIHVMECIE

Biological target: Flag-tagged NEMO (pCMV-MCS-IKBKG-3FLAG) (UniProt Q9Y6K9)
Test: co-IP; GES-1 cells transfected with pCMV-MCS-IKBKG-3FLAG for 48 h; lysed in immunoprecipitation RIPA buffer; 2 mg whole cell lysate with 8 µg anti-flag or mouse IgG isotype control antibody, 16 h at 4 °C; Protein G Sepharose beads; washed 5 times; blotted with anti-NEMO and anti-CMTM3

B1: CKLF-like MARVEL transmembrane domain containing 3 (CMTM3) (protein, UniProt Q96MX0 1-182)
chain: MWPPDPDPDPDPEPAGGSRPGPAVPGLRALLPARAFLCSLKGRLLLAESGLSFITFICYVASSASAFLTAPLLEFLLALYFLFADAMQLNDKWQGLCWPMMDFLRCVTAALIYFAISITAIAKYSDGASKAAGVFGFFATIVFATDFYLIFNDVAKFLKQGDSADETTAHKTEEENSDSDSD
For B1, the binding was “binds”.
